Experimental data taken from publication PMC8563757.
No constants are given. Whether binding was seen depends on the method and setting. Binding seen in cells or lysates may run through a third protein. Some results given as binding are weak or reduced against the parent protein; the word gives no strength.

T1: NudCL2 (form in the experiment not told; Fig. S6c, d and Fig. S8) (UniProt Q9CQ48)
T1 sequence: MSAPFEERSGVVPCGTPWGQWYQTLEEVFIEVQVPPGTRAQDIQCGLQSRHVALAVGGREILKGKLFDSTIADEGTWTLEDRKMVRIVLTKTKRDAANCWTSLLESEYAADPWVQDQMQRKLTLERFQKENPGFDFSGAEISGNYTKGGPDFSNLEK

T2: Centriolar coiled-coil protein 110 (CP110), endogenous, MEF cells (mouse (endogenous in MEF)) (UniProt Q7TSH4)
T2 sequence: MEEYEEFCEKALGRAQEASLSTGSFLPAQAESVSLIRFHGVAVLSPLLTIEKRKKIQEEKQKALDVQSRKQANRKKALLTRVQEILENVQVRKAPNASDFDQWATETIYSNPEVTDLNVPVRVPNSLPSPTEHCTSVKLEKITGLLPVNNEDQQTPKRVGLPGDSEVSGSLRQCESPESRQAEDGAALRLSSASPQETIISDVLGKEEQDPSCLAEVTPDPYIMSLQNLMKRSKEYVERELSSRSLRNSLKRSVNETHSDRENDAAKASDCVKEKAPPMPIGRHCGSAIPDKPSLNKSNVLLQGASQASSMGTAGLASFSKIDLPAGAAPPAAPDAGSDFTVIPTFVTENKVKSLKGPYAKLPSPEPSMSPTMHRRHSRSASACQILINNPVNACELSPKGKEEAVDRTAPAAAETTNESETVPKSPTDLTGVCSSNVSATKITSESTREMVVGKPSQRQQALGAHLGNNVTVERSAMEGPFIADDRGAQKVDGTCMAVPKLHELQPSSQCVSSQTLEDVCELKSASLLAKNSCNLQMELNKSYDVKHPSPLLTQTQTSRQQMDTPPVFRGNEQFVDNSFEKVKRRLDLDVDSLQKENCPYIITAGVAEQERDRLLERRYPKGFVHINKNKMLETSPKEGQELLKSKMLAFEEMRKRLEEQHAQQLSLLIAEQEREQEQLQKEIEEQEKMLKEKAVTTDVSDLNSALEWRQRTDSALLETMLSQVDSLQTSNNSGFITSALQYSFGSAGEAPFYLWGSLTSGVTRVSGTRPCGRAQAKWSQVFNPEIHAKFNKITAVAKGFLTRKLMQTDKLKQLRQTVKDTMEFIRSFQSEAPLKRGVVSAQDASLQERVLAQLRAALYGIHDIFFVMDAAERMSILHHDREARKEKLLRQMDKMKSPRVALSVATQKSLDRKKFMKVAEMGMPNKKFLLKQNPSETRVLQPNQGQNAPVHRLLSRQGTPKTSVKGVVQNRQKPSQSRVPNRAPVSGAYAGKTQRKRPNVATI

B1: centrosomal protein 83 (CEP83) (protein, UniProt Q9D5R3 1-692)
chain: MDTFPSLFPPGGDSRLNPEPEFQNMLIDERVRCEHHKHNYQALKIEHKRLQEEYVKSQNELKRVLIEKQASQEKFQLLLEDLRGELVEKARDIEKMKLQVLTPQKLELVKAQLQQELEAPMRERFRTLDEEVERYRAEYNKLRYEYTFLKSEFEHQKEEFTRVSEEEKMKYKSEVARLEKDKEELHNQLLSVDPTRDSKRMEQLVREKTHLLQKLKSLEAEVAELRAEKENSGAQVENVQRIQVRQLAEMQATLRSLEAEKQSAKLQAERLEKELQSSNEQNTCLISKLHRADREISTLASEVKELKHANKLEITDIKLEAARAKSELERERNKIQSELDGLQSDNEILKSTVEHHKALLVEKDRELIRKVQAAKEEGYQKLMVLQDEKLELENRLSDLEKMKVERDVWRQSEKEQCEEKLRASQMAEEAARRELQSTRLKLQQQIVNTEKAEKEKLENSELKQQISHLQIQVTSLTQSENDLLNSNHMLKDMVERLKQECRNLRSQAEKAQLDVEKTLEEKQIQWLEEKHKLHERITDREEKYNQAKEKLQRAATAQKKRKSLHENKLKRLQEKVEVLEAKKEELETENQVLNRQNVPFEEYTRLQKRLKDIQRRHNEFRSLILVPNMPPTASISPANFQSAVTVPGAELSFPPHLQEEQHQRELSLLRKRLEELETTQRKQLEELGSPGE
B2: centrosomal protein 89 (CEP89) (protein, UniProt Q9CZX2 1-791)
chain: MLLSFRRNRRSQFNHIIHGFLPAASIAPKPAVPRTPPPRSPNPSPERPRSALAAAILATTLTGQTVAIPQPRQRSRSESDASDIEKDSFIKPYATTSELRLRQSWQNEPRRTSLPSFEMLGYGEDEDAETQVSTSCRESESTWKDVGDGRDATYTVPHRDQVLPSQKLVRKDDAPQPDWLSDSSSSSSSSTPQHTQQKDVKHSVLNLEGEKVRLHEKPPPSPDVAGRIHQRYTEITKEKFAELKEETVHLYSANQALSCELSALRQAMKDLQLKLKLVEKDNRKLKETEKASCQEGVTPELLCLRKQSQDLVDENEGLKMIVHRLNVELSRYQTKFRPLSEEESSHIQGLPSKGPTPPWLVDIKYLSPLLLAYEDRMKEKDKLSTALEEEMKTFRLRVQEVVKENEALHQELTKRSPVTVEEWRQLQTQAELVLDENKLLIEQLEIQQAKARDTHQAHLQDVSKLTKQLVLLEAKTQGQEKQLVESTEQLESLQAKCTELKAQLDSKIAVDVHTSIVNELKSQLQKEEEKDSAEMEELMAKLTALQVQKKSLLLEKSSWATRNRALEAELERTRKANRRYQKRIDVLRKQVEKAMGKEMSAHQYLANLVGLAETVTKERDSLKYLAQCLESEKHGVLNKILKGNIRLGKLEERVKGYKKQAALKLGDIHHRLKEQQEDFAGKAAQYQKEVKHLHRMLQEKQEVLDEALQQKRNMEGELEMVLESTAKENRRMRSLLQATLERRSTQHVTAPPDTCLRRSSQGDLLIGHDFSYGDVQLLATTNRQSLGESMA
B3: Tau tubulin kinase 2 (TTBK2) (protein, UniProt Q3UVR3 1-1243)
chain: MSGGGEQPDILSVGILVKERWKVLRKIGGGGFGEIYDALDMLTRENVALKVESAQQPKQVLKMEVAVLKKLQGKDHVCRFIGCGRNDRFNYVVMQLQGRNLADLRRSQSRGTFTISTTLRLGKQILESIESIHSVGFLHRDIKPSNFAMGRFPSTCRKCFMLDFGLARQFTNSCGDVRPPRAVAGFRGTVRYASINAHRNREMGRHDDLWSLFYMLVEFVVGQLPWRKIKDKEQVGSIKERYDHRLMLKHLPPEFSTFLDHISSLDYFTKPDYQLLTSVFDNSIKTFGVIESDPFDWEKSGTDGSLTTTTTSATPQLHTRLTPAAIGIANATPIPGDLLRENTDEVFPDEQLSDGENGIPVGVSPDKLPGSLGHPRPQEKDVWEEMDINKNKIKLGICKAATEEENSHGQVNGILNAPSLGSPIRVRSEITQPDRDVPLVRKLRSIHSFELEKRLTLEPKPDTDKFLETCMEKMQKDSSAGKEPVPPALPHKPCVPVVTHTDHIWHYDDEYLPDASKPASANTPEQADGGGSNGFIAVNLSSCKQEVDSKEWVIVDKEQDLQDFRTNEVLGHKTTGSPSDEEPEVLQVLEGSPQDEKIQVGPWTDNHHLKKESSGVVLALSAECPATAASELYTDRLDLQAGAASQFITVTPTSPMEAQAEGPLTAITIPRPSVASTQSTSGSFHYGPQPEKKDLQPLEPTVELYSPRENFSGLVVTEGELASGGSRVDLGLQIDHTGHDMLPNMRDGDTSQDLGPKDPPDHNRLAVKEFEHLPGETEERSLLLGSENEDERLSKGQHCIEVSSPGELVTAERAQLAATEPLHVSETQNCSVLPNQDKTHEIMKLLAVGTSEISPQAIDPHAEGQIGQMAAMQKNKLFKDDGIQSESLPRQQGDLSAFLHQEGKREKVVPRNGELYHCVSENEHGPPTRKDMLRSSFVTRHSRIPVLAQEIDSTFESSSAISAKEKLLQKKAYQPEIVKLLVEKRQFKSFLGDLSSASDKLIEEKLAAVPVPFSEEEVFAPFSRLAADSHLSRSVEDSFLSPIISQARKSKIPRPVSWVSTDQINGSASPQFLPRPPPGKPPVRPGVEARLRRYKVLGSSNSDSDLFSRLAQILQNGSQKSRSTTQCKSPGSPHNPKTPPKSPVVPRRSPSASPRSSSLPRTSSSSPSRAGRPHHDQRSSSPHLGRSKSPPSHSGSSSSRRSCQQEHCKPSKNGPKGSGSLHHHSTSSKTPPGKSKPASKLSR
B4: NudC-like protein 2 (NudCL2), endogenous, MEF cells (protein, UniProt Q9CQ48 1-157)
chain: MSAPFEERSGVVPCGTPWGQWYQTLEEVFIEVQVPPGTRAQDIQCGLQSRHVALAVGGREILKGKLFDSTIADEGTWTLEDRKMVRIVLTKTKRDAANCWTSLLESEYAADPWVQDQMQRKLTLERFQKENPGFDFSGAEISGNYTKGGPDFSNLEK

Columns and labels:
[1] = biological target: T1, NudCL2 (form in the experiment not told; Fig. S6c, d and Fig. S8); experiment: co-IP; co-IP of NudCL2 with CEP83, CEP89 or TTBK2; cells and antibodies in Fig. S8, not shown
[2] = biological target: T2, Centriolar coiled-coil protein 110 (CP110), endogenous, MEF cells (mouse (endogenous in MEF)); experiment: co-IP; endogenous proteins, wild-type MEF cell lysates, antibodies at 4 °C overnight, Protein A/G Sepharose beads, western blotting

Row | Binder | binding [1] | binding [2]
1 | B1 | binds | –
2 | B2 | binds | –
3 | B3 | binds | –
4 | B4 | – | binds
